{"source": "patent EP0031926A2", "about": "“Radioimmunological set for the determination of progesterone and its use, and radioimmunoassay method for the determination of progesterone” (HOECHST AKTIENGESELLSCHAFT, priority 1979, dated 1981)", "test_system": "gegen Progesteron-11α-bernsteinsäurehalbester-ovalbumin erzeugten Antiserum", "assay": "Cross-reactivity of steroids in the radioimmunoassay for progesterone (competitive binding, 125I-labelled progesterone-3 tracer, charcoal separation)", "design": "species or system Kaninchen", "details": "result in words, text below the cross-reactivity table", "text": "Die vorliegende Erfindung stellt ein Radioimmunobesteck und eine Bestimmungsmethode für Progesteron zur Verfügung, welche dadurch gekennzeichnet ist, daß man in saurem Medium, vorzugsweise einem sauren Puffer, eine Flüssigkeitsprobe mit einer bekannten Menge von gegen ein Progesteron/Proteinkonjugat erzeugten Antikörpern, wobei das Protein über eine Brückengruppe in 11-Stellung, im allgemeinen 11α-Stellung, an das Progesteron gebunden ist, und mit einer bekannten Menge eines Progesteronderivats,das in 3-Stellung über eine Brücke mit einem Rest substituiert ist, welcher ein oder mehrere Atome eines Jodradioisotops trägt, inkubiert, . das in dem entstandenen Antikörper /Antigenkomplex gebundene Steroid von der freien Steroidkomnonente abtrennt und deren Radioaktivität oder die des Antikörper/Antigenkomplexes mißt. Im allgemeinen wird das Antiserum zuletzt zugesetzt, und der Indikator wird vorzugsweise zum Standard bzw. zur Probe gegeben.\nWie oben erwähnt ist die eigentliche Bestimmung eine herkömmliche radioimmunologische Bestimmung mit Bindungskonkurrenz, d.h. sie ist abhängig von der Konkurrenz zwischen unmarkiertem Progesteron und einem radiojodierten Progesteronderivat um die Bindungsstellen eines progesteronspezifischen Antikörpers. Der an den Antikörper gebundene Anteil an jodiertem Progesteron ist der Menge des vorhandenen unmarkierten Progesterons umgekehrt proportional. […]", "note": "Some of these results come from one statement about several compounds together."}
{"molecule": "CC(=O)[C@H]1CC[C@H]2[C@@H]3CC=C4C[C@@H](O)CC[C@]4(C)[C@H]3CC[C@]12C", "note": "[Pregnenolon]", "values": [{"measurement": "Kreuzreaktion bei der Bestimmung", "value": "eine gewisse Kreuzreaktivität"}]}
